# Laboratory results from the supplement of paper PMC8728848.
# The other results are listed elsewhere or left out.
# B1: MIC2 (Toxoplasma gondii), S8F9G8 (protein)
# chain: MRLQREAVFGLMFACGMWMWPSEVAGGGWSIVDALRKRYDTSRGGDANGVDTSGVEDVIQSESAIGAAEGCTNQLDICFLIDSSGSIGIQNFRLVKQFLHTFLMVLPIGPEEVNNAVVTYSTDVHLQWDLQSPNAVDKQLAAHAVLDMPYKKGSTNTSDGLKACKQILFTGSRPGREHVPKLVIGMTDGESDSDFRTVRAAKEIRELGGIVTVLAVGHYVKHSECRSMCGCSGTSDDDSPCPLYLRADWGQLATAIKPMLKEVCKTLPQDAICSDWSAWSPCSVSCGDGSQIRTRTEVSAPQPGTPTCPDCPAPMGRTCVEQGGLEEIRECSAGVCAVDAGCGVWGEWSAWSASCGNATRKRERTRYNDPPPQGAGRRCENQDPPVLQEQTEEATLAPCITIPPTPPEWAAWSDCTVTCGGGNRHRVRNALPPGLGSQNGESDESLVSKLWPGTDLRQEEACNTSPCPINATCGQFEEWSTCSVSCGGGLKTRSRNPWNEDQQHGGLSCEQQHPGGRTETITCNPQACPVDERPGEWAEWGECSVTCGDGVRERRRGKSLVEAKFGGRTIDQQNEALPEDLKIKNVEYEPCSYPACGASCTYVWSDWNKCVCPMGYQARHAAVKFDYRNKPCDLPTFETKACSCGETNPVPSEGTTPGAPGATGPEQPNQRPLPEGSDENETPTNEEGEQSKKESGSGIAGAIAGGVIGGLILLGAAGGASYHYYLSSSVGSPSAEIEYEADDGATKVVMEEEKETLVPVDDDSDMWME
# How the values were obtained:
# Assay in all cases: glycan array binding signal (z-score within array); higher = stronger binding
# Conditions in all cases: glycan notation: IUPAC condensed, linker removed
# [1] = target: Fuc(a1-2)[GalNAc(a1-3)]Gal(b1-4)GlcNAc(b1-3)Gal(b1-4)GlcNAc
# Outline: (§1)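 The binding signal is a Z-score computed within each array. Data were drawn from 3228 arrays in the Consortium for Functional Glycomics database, restricted to those with a known protein sequence. Scores were averaged over arrays of the same protein sequence at different concentrations or buffers, and over linkers, and negative values can be taken as non-binding.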
# [2] = target: Fuc(a1-2)[GalNAc(a1-3)]Gal(b1-4)GlcNAc(b1-3)Gal(b1-4)GlcNAc(b1-3)Gal(b1-4)GlcNAc
# Outline: as §1
# [3] = target: Fuc(a1-2)[GalNAc(a1-3)]Gal(b1-4)[Fuc(a1-3)]GlcNAc
# Outline: as §1
# [4] = target: Fuc(a1-2)[GalNAc(a1-4)]Gal(b1-4)GlcNAc
# Outline: as §1
# [5] = target: Fuc(a1-2)[GalNAc(b1-3)]Gal
# Outline: as §1
# Fuc(a1-3)GlcNAc = target: Fuc(a1-3)GlcNAc
# Outline: as §1
# [6] = target: Fuc(a1-3)[Gal(b1-4)]Glc6S
# Outline: as §1
# [7] = target: Fuc(a1-3)[Gal(b1-4)]GlcNAc
# Outline: as §1
# [8] = target: Fuc(a1-3)[Gal(b1-4)]GlcNAc(b1-2)Man(a1-3)[Fuc(a1-3)[Gal(b1-4)]GlcNAc(b1-2)Man(a1-6)]Man(b1-4)GlcNAc(b1-4)GlcNAc
# Outline: as §1
# [9] = target: Fuc(a1-3)[Gal(b1-4)]GlcNAc(b1-3)Gal(b1-3)[Fuc(a1-4)]GlcNAc
# Outline: as §1
# [10] = target: Fuc(a1-3)[Gal(b1-4)]GlcNAc(b1-3)GalNAc
# Outline: as §1
# [11] = target: Fuc(a1-3)[Gal(b1-4)]GlcNAc(b1-4)Gal(b1-4)[Fuc(a1-3)]GlcNAc
# Outline: as §1
# [12] = target: Fuc(a1-3)[Gal(b1-4)]GlcNAc(b1-4)Gal(b1-4)[Fuc(a1-3)]GlcNAc(b1-4)Gal(b1-4)[Fuc(a1-3)]GlcNAc
# Outline: as §1
# [13] = target: Fuc(a1-3)[Gal(b1-4)]GlcNAc(b1-6)[Gal(b1-3)GlcNAc(b1-3)]Gal(b1-4)Glc
# Outline: as §1
# [14] = target: Fuc(a1-3)[Gal(b1-4)]GlcNAc6S
# Outline: as §1
# [15] = target: Fuc(a1-3)[Gal3S(b1-4)]GlcNAc
# Outline: as §1
# [16] = target: Fuc(a1-3)[Gal3S(b1-4)]GlcNAc6S
# Outline: as §1
# [17] = target: Fuc(a1-3)[GalNAc(b1-4)]GlcNAc
# Outline: as §1
# Fuc(a1-4)GlcNAc = target: Fuc(a1-4)GlcNAc
# Outline: as §1
# Fuc(b1-3)GlcNAc = target: Fuc(b1-3)GlcNAc
# Outline: as §1
# Gal(a1-2)Gal = target: Gal(a1-2)Gal
# Outline: as §1
# Gal(a1-3)Gal = target: Gal(a1-3)Gal
# Outline: as §1
# Gal(a1-3)Gal(b1-3)GlcNAc = target: Gal(a1-3)Gal(b1-3)GlcNAc
# Outline: as §1
# [18] = target: Gal(a1-3)Gal(b1-3)GlcNAc(b1-2)Man(a1-3)[Gal(a1-3)Gal(b1-3)GlcNAc(b1-2)Man(a1-6)]Man(b1-4)GlcNAc(b1-4)GlcNAc
# Outline: as §1
# [19] = target: Gal(a1-3)Gal(b1-3)[Fuc(a1-4)]GlcNAc(b1-2)Man(a1-3)[Gal(a1-3)Gal(b1-3)[Fuc(a1-4)]GlcNAc(b1-2)Man(a1-6)]Man(b1-4)GlcNAc(b1-4)GlcNAc
# Outline: as §1
# Gal(a1-3)Gal(b1-4)Glc = target: Gal(a1-3)Gal(b1-4)Glc
# Outline: as §1
# Gal(a1-3)Gal(b1-4)GlcNAc = target: Gal(a1-3)Gal(b1-4)GlcNAc
# Outline: as §1
# [20] = target: Gal(a1-3)Gal(b1-4)GlcNAc(b1-3)GalNAc
# Outline: as §1
# [21] = target: Gal(a1-3)Gal(b1-4)[Fuc(a1-3)]GlcNAc
# Outline: as §1
# [22] = target: Gal(a1-3)Gal(b1-4)[Fuc(a1-3)]GlcNAc(b1-2)Man(a1-3)[Gal(a1-3)Gal(b1-4)[Fuc(a1-3)]GlcNAc(b1-2)Man(a1-6)]Man(b1-4)GlcNAc(b1-4)GlcNAc
# Outline: as §1
# Gal(a1-3)GalNAc = target: Gal(a1-3)GalNAc
# Outline: as §1
# [23] = target: Gal(a1-3)[Gal(a1-4)]Gal(b1-4)GlcNAc
# Outline: as §1
# [24] = target: Gal(a1-4)Gal(b1-3)GlcNAc(b1-2)Man(a1-3)[Gal(a1-4)Gal(b1-3)GlcNAc(b1-2)Man(a1-6)]Man(b1-4)GlcNAc(b1-4)GlcNAc
# Outline: as §1
# Gal(a1-4)Gal(b1-4)Glc = target: Gal(a1-4)Gal(b1-4)Glc
# Outline: as §1
# Gal(a1-4)Gal(b1-4)GlcNAc = target: Gal(a1-4)Gal(b1-4)GlcNAc
# Outline: as §1
# [25] = target: Gal(a1-4)Gal(b1-4)GlcNAc(b1-2)Man(a1-3)[Gal(a1-4)Gal(b1-4)GlcNAc(b1-2)Man(a1-6)]Man(b1-4)GlcNAc(b1-4)GlcNAc
# Outline: as §1
# [26] = target: Gal(a1-4)Gal(b1-4)GlcNAc(b1-3)Gal(b1-4)Glc
# Outline: as §1
# Gal(a1-4)GlcNAc = target: Gal(a1-4)GlcNAc
# Outline: as §1
# Gal(a1-6)Glc = target: Gal(a1-6)Glc
# Outline: as §1
# Gal(b1-2)Gal = target: Gal(b1-2)Gal
# Outline: as §1
# Gal(b1-3)Gal = target: Gal(b1-3)Gal
# Outline: as §1
# Gal(b1-3)Gal(b1-4)GlcNAc = target: Gal(b1-3)Gal(b1-4)GlcNAc
# Outline: as §1
# [27] = target: Gal(b1-3)Gal(b1-4)GlcNAc(b1-2)Man(a1-3)[Gal(b1-3)Gal(b1-4)GlcNAc(b1-2)Man(a1-6)]Man(b1-4)GlcNAc(b1-4)GlcNAc
# Outline: as §1
# Gal(b1-3)GalNAc = target: Gal(b1-3)GalNAc
# Outline: as §1
# [28] = target: Gal(b1-3)GalNAc(a1-3)[Fuc(a1-2)]Gal(b1-4)Glc
# Outline: as §1
binder,measurement,setting,value
B1,glycan array binding signal (z-score),[1],-0.814
same,glycan array binding signal (z-score),[2],0.915
same,glycan array binding signal (z-score),[3],0.955
same,glycan array binding signal (z-score),[4],-0.89
same,glycan array binding signal (z-score),[5],-0.782
same,glycan array binding signal (z-score),Fuc(a1-3)GlcNAc,-0.671
same,glycan array binding signal (z-score),[6],-0.826
same,glycan array binding signal (z-score),[7],0.085
same,glycan array binding signal (z-score),[8],2.86
same,glycan array binding signal (z-score),[9],-0.573
same,glycan array binding signal (z-score),[10],2.38
same,glycan array binding signal (z-score),[11],0.173
same,glycan array binding signal (z-score),[12],0.256
same,glycan array binding signal (z-score),[13],-0.489
same,glycan array binding signal (z-score),[14],-0.712
same,glycan array binding signal (z-score),[15],-0.031
same,glycan array binding signal (z-score),[16],3.68
same,glycan array binding signal (z-score),[17],1.07
same,glycan array binding signal (z-score),Fuc(a1-4)GlcNAc,0.126
same,glycan array binding signal (z-score),Fuc(b1-3)GlcNAc,0.622
same,glycan array binding signal (z-score),Gal(a1-2)Gal,0.018
same,glycan array binding signal (z-score),Gal(a1-3)Gal,-0.528
same,glycan array binding signal (z-score),Gal(a1-3)Gal(b1-3)GlcNAc,0.259
same,glycan array binding signal (z-score),[18],1.23
same,glycan array binding signal (z-score),[19],-0.391
same,glycan array binding signal (z-score),Gal(a1-3)Gal(b1-4)Glc,-0.31
same,glycan array binding signal (z-score),Gal(a1-3)Gal(b1-4)GlcNAc,-0.181
same,glycan array binding signal (z-score),[20],0.738
same,glycan array binding signal (z-score),[21],-0.378
same,glycan array binding signal (z-score),[22],-0.581
same,glycan array binding signal (z-score),Gal(a1-3)GalNAc,0.545
same,glycan array binding signal (z-score),[23],-0.891
same,glycan array binding signal (z-score),[24],-0.296
same,glycan array binding signal (z-score),Gal(a1-4)Gal(b1-4)Glc,-1.03
same,glycan array binding signal (z-score),Gal(a1-4)Gal(b1-4)GlcNAc,-0.915
same,glycan array binding signal (z-score),[25],-0.941
same,glycan array binding signal (z-score),[26],0.229
same,glycan array binding signal (z-score),Gal(a1-4)GlcNAc,-0.17
same,glycan array binding signal (z-score),Gal(a1-6)Glc,1.43
same,glycan array binding signal (z-score),Gal(b1-2)Gal,0.185
same,glycan array binding signal (z-score),Gal(b1-3)Gal,0.049
same,glycan array binding signal (z-score),Gal(b1-3)Gal(b1-4)GlcNAc,-0.903
same,glycan array binding signal (z-score),[27],0.013
same,glycan array binding signal (z-score),Gal(b1-3)GalNAc,0.256
same,glycan array binding signal (z-score),[28],0.186

# Some of the entries above, reformatted.
binder | measurement | setting | value
B1 | glycan array binding signal (z-score) | [9] | -0.573
same | glycan array binding signal (z-score) | [10] | 2.38
same | glycan array binding signal (z-score) | [11] | 0.173
same | glycan array binding signal (z-score) | [12] | 0.256
same | glycan array binding signal (z-score) | [13] | -0.489
same | glycan array binding signal (z-score) | [14] | -0.712
same | glycan array binding signal (z-score) | [15] | -0.031
same | glycan array binding signal (z-score) | [16] | 3.68
same | glycan array binding signal (z-score) | [17] | 1.07
